Laboratory results as given in publication PMC12349880.
These are yes or no findings as the source states them, for the method shown. Binding seen in cells or lysates may run through a third protein.

The chains behind the UniProt entries cited, without tags or fusion partners.
UniProt Q01094: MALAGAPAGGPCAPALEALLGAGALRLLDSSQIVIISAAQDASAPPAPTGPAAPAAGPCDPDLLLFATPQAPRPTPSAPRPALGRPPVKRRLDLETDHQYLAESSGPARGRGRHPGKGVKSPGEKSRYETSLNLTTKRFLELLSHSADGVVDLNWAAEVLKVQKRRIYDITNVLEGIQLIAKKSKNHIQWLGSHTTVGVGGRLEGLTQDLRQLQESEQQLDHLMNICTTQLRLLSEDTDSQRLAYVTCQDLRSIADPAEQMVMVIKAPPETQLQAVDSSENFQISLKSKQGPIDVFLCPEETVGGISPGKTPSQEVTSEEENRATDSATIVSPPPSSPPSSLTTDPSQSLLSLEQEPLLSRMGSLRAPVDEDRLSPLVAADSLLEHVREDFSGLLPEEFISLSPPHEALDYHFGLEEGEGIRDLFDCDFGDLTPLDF
UniProt P03206: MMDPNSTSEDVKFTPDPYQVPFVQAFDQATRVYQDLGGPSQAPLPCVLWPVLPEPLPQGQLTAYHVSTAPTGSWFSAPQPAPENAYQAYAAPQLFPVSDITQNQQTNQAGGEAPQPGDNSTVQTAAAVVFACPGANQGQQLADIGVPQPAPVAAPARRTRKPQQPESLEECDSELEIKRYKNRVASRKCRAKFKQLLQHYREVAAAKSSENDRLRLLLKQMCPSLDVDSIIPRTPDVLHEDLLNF

Biological target: flag-tagged E2F1 (UniProt Q01094)
Test: co-IP; HEK293 cells transiently transfected with myc-tagged BZLF1 with or without flag-tagged E2F1; lysed in RIPA buffer with protease inhibitors; precleared; immunoprecipitated with 1 ug anti-flag mouse monoclonal antibody overnight at 4 C; Protein-A/G magnetic beads; washed three times with RIPA buffer; immunoblot

Question: Which binding does the source give for “myc-tagged BZLF1 (from UniProt P03206 1-245)” here?
Answer: no binding
